Measured data: PubChem BioAssay AID1159584 (Peter MacCallum Cancer Centre, 2016)
Test: 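Knock-downs that harm CDH1-null cells more than parental MCF10A cells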 (primary screen). System: human MCF10A breast epithelial cells, parental and CDH1-null. Reagent: siRNA against human genes. Measured: 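Cell viability by CellTiter-Glo ATP luminescence, each line scaled to the mean of mock wells across plates, then CDH1-null over parental ratio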. Reading the numbers: CDH1-null / parental viability ratio: higher = CDH1-null cells survive relatively better than parental.
Here is one part, drawn at random, of about 18,000 reagents tested. Not all columns of the deposit are shown. Not stated in the record: the amount of reagent, the time to read-out.

target gene | CDH1-null / parental viability ratio
FRY | 1
AMY2A | 0.84
NUP98 | 0.98
CCDC89 | 0.97
TICAM2 | 1.08
SLC7A4 | 0.87
EEF1G | 1.11
SLC16A5 | 1.28
RGS18 | 1.15
SGPP2 | 1.35
ACSS3 | 0.98
TIMM9 | 1.08
OLAH | 0.94
LIPK | 0.93
CACNG6 | 1.24
HIGD1B | 1.13
ZNF550 | 1.76
SOWAHB | 1.04
TARBP2 | 1.25
NARF | 1.14
ACTL7B | 0.96
OR7G3 | 0.95

As entered above.
CACNG6, CDH1-null / parental viability ratio: 1.24
CCDC89, CDH1-null / parental viability ratio = 0.97

Additional records follow.
target gene | CDH1-null / parental viability ratio
EBLN2 | 1
EPSTI1 | 1
TMEM65 | 1
POLR2I | 1.03
FBXW8 | 0.98
B4GALNT4 | 0.8
KBTBD4 | 1.17
OR6C74 | 1.16
KLK13 | 1.14
CYSLTR1 | 1.48
METTL5 | 1.11
SRI | 1.05
COPB1 | 0.8
NELL1 | 0.96
NFX1 | 0.75
CYP4B1 | 1.45
OR2A25 | 0.65
HNRNPDL | 1.02
RBMS2 | 1.05
SERINC2 | 1.22
SLC27A5 | 0.98
CST2 | 1.02
HOATZ | 0.97
VPS8 | 0.92
